# Experimental data as given in patent US6448273B1, “Orally active iron (III) chelators” (BTG International Limited, priority 1997, dated 2002).
# At least one read-out could not be matched to a standard name with certainty.
# Assay: Iron III Mobilisation Efficacy Assay in Rat: Oral Administration
# Type: in vivo
# Settings: 59Fe ferritin labelled hepatocytes, 24 hours, dose not printed in this table (150-450 μmol/Kg)
# Method: Control rats were given an equivalent volume of water. The rats were placed in individual metabolic cages and their urine and faeces collected. One hour after the administration they were allowed access to food, with no restriction on water being made throughout the study period. The investigation was terminated 24 hours after the ^59Fe ferritin administration when rats were sacrificed and their livers and gastrointestinal tracts, including all contents including faeces, were removed for gamma counting.
smiles,measurement,value
"Cc1c(O)c(=O)ccn1CCCO [CP41, reference compound]",Iron Mobilisation,29.9 ± 4.3% (n = 5)
